According to PubChem BioAssay AID1487 (National Center for Advancing Translational Sciences (NCATS), 2009):
This is one part of the list. These are further read-outs of the screen, such as a control signal, another cell line or another target. No call is given for them. Most of these compounds were active or inconclusive in the main read-out, so they are no random draw. Words in brackets tell the shape of the fitted curve; partial curves, single points and poor fits give uncertain potencies.

Assay: qHTS Assay for Modulators of Lamin A Splicing
Conditions: HeLa LMNA splicing GFP/RFP minigene ratio, 48 h
Summary of the method: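 S3 HeLa cells stably expressing lamin A-EGFP splicing minigene plus DsRed2, 600 cells/well, 48 h compound exposure at 37C. Laser-scanning cytometry; analysed as GFP (500-530 nm)/RFP (575-640 nm) total intensity ratio; 0.5% DMSO vehicle.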

[1] = measured here: GFP splicing reporter channel
[2] = measured here: RFP viability control channel

Row | SMILES | AC50 [1] | AC50 [2]
1 | CCc1ccc(CNC(=O)CN2C(=O)CSc3c2c(C)nn3-c2ccccc2)cc1 | 0.00316 µM [falling, full curve, poor fit] | 0.00447 µM [falling, full curve, poor fit]
2 | CC(=O)c1cccc(S(=O)(=O)N2CCN(c3nc4cc(C)cc(C)c4cc3C#N)CC2)c1 | – | 12.6 µM [rising, partial curve]
3 | COc1ccc(-c2c3c(cc(C)[n+]2[O-])oc2ccc(OC)cc23)cc1 | 14.1 µM [rising, single point] | 22.4 µM [rising, single point]
4 | CCCSc1nsc(NC(=O)C(c2ccccc2)c2ccccc2)n1 | 22.4 µM [falling, single point] | 22.4 µM [falling, partial curve]
5 | CC(C)NC(=O)C1CCN(C2CCN(C(=O)C3=CCCC3)CC2)CC1 | – | 0.501 µM [falling, partial curve, poor fit]
6 | C[C@@H]1C(=O)NC2=Nc3cccc(Cl)c3CN21 | 0.00501 µM [falling, full curve, poor fit] | 0.00501 µM [falling, full curve, poor fit]
7 | COc1ccc(-c2csc(NC(=O)CSc3nc(C)nc4sc(C(=O)O)c(C)c34)n2)cc1 | 12.6 µM [rising, partial curve, poor fit] | –
8 | O=C(/C=C/c1cccs1)c1cc(Cl)ccc1O | 35.5 µM [falling, single point] | 14.1 µM [falling, partial curve, poor fit]
9 | COC(=O)[C@@]1(Cc2ccc(F)cc2)[C@H]2c3cc(C(=O)N4CCCC4)n(Cc4ccc(C(F)(F)F)nc4)c3C[C@H]2CN1C(=O)c1ccccc1 | 11.2 µM [rising, single point] | 14.1 µM [rising, single point]
10 | COC(=O)N/N=C/c1ccc([N+](=O)[O-])s1 | 31.6 µM [rising, single point] | 31.6 µM [rising, single point]
11 | O=C(NCCc1ccccc1)C1CCC(Cn2c(=O)c3ccccc3n(Cc3cccnc3)c2=O)CC1 (centres undefined) | 2.82 µM [rising, partial curve, poor fit] | 14.1 µM [rising, partial curve, poor fit]
12 | Cn1c(N2CCN(C(=O)Nc3ccc(C(F)(F)F)cc3)CC2)nc2ccccc21 | – | 25.1 µM [rising, single point]
13 | COc1cc(/C=C2/CCC/C(=C\c3cc(O)c(OC)c(Cl)c3)C2=O)cc(Cl)c1O | 10 µM [falling, partial curve] | 7.08 µM [falling, full curve]
14 | CC(NC(=O)Cn1ccsc1=N)C12CC3CC(CC(C3)C1)C2 (centres undefined) | – | 7.94 µM [rising, partial curve, poor fit]
15 | COc1cc(/C=N/Nc2snc(SC)c2C#N)ccc1O | – | 2.51 µM [falling, single point]
16 | O=C(Nc1ccc2c(c1)N(Cc1ccccc1)C(=O)c1ccccc1S2)NC1CC1 | 35.5 µM [rising, single point] | 25.1 µM [rising, single point]
17 | Oc1c(CN2CCN(c3ccc(F)cc3)CC2)cc(Cl)c2cccnc12 | – | 15.8 µM [rising, partial curve]
18 | O=C(NC1CC(=O)N(c2ccccc2)C1)c1ccc(S(=O)(=O)N2CCCCC2)cc1 (centres undefined) | 0.00447 µM [falling, full curve, poor fit] | 0.00794 µM [falling, full curve, poor fit]
19 | CCC1CCCCN1S(=O)(=O)c1ccc(NC(=O)c2cccs2)cc1 (centres undefined) | – | 15.8 µM [rising, single point]
20 | O=C(Nc1ccc(NC(=O)c2sc3ccccc3c2Cl)cc1Cl)c1ccco1 | 17.8 µM [falling, single point] | 35.5 µM [falling, single point]
21 | CN1Cc2c(N)cccc2[C@H](c2ccccc2)C1 | 7.94 µM [falling, partial curve, poor fit] | 12.6 µM [falling, single point]
22 | Cc1ccc2c(c1)c(Sc1ccccc1)c(CC(=O)O)n2C | 4.47 µM [rising, partial curve] | 3.16 µM [rising, partial curve]
23 | COc1cccc2c1C(=O)c1c(O)c3c(c(O)c1C2=O)C[C@](O)(C(=O)CO)C[C@H]3O[C@@H]1C[C@H](N)[C@H](O)[C@H](C)O1 | 1 µM [falling, partial curve] | 1.12 µM [falling, full curve]
24 | CCN(C(=O)CSc1nnc(-c2ccc(F)cc2)c2ccccc12)C1CCS(=O)(=O)C1 (centres undefined) | 0.562 µM [falling, full curve, poor fit] | –
25 | Cc1ccc(N2CCN(C(=O)c3cnc(N4CCCCC4)c4ccccc34)CC2)c(C)c1 | 0.0562 µM [falling, full curve, poor fit] | 0.0562 µM [falling, full curve, poor fit]
26 | COc1ccc(S(=O)(=O)Nc2ccc(S(=O)(=O)Nc3ccc(F)cc3)cc2)cc1C | – | 10 µM [rising, single point]
27 | COc1ccc(CN(C)CC(=O)Nc2cc(OC)c([N+](=O)[O-])cc2C)c(OC)c1 | 3.98 µM [rising, partial curve] | 7.94 µM [rising, partial curve, poor fit]
28 | CC(=O)c1sc(Nc2ccccn2)nc1C | 25.1 µM [falling, single point] | 20 µM [falling, partial curve, poor fit]
29 | CC(C)(CO)NC(=O)CC1C(=O)NCCN1CC(c1ccccc1)c1ccccc1 (centres undefined) | 0.562 µM [rising, full curve] | –
30 | CCC(C(=O)N1CCN(c2ccccc2OC)CC1)c1ccccc1 (centres undefined) | 11.2 µM [rising, single point] | 14.1 µM [rising, single point]

An excerpt of these results, comma-delimited.
Row,SMILES,AC50 [1],AC50 [2]
9,COC(=O)[C@@]1(Cc2ccc(F)cc2)[C@H]2c3cc(C(=O)N4CCCC4)n(Cc4ccc(C(F)(F)F)nc4)c3C[C@H]2CN1C(=O)c1ccccc1,"11.2 µM [rising, single point]","14.1 µM [rising, single point]"
13,COc1cc(/C=C2/CCC/C(=C\c3cc(O)c(OC)c(Cl)c3)C2=O)cc(Cl)c1O,"10 µM [falling, partial curve]","7.08 µM [falling, full curve]"
